Assay results taken from patent US20120329784A1, “COMPOUNDS AND METHODS” (priority 2010, published 2012).
Counter-ions that a name gives are not always drawn. Some entries share one result that the patent states for a list of compounds.

biological target: T1, Full length human TNNI3K (hTNNI3K) (Homo sapiens, UniProt Q59H18); experiment: Fluorescent polarization assay of compound inhibition on hTNNI3K ATP binding (Biological Assay Method I); details: mean of a minimum of 2 experiments; displacement of fluorescent ligand from hTNNI3K ATP binding pocket; 60 min at rt
T1 construct: His-MBP-TEV-Full length human TNNI3K (hTNNI3K); His (N); MBP (N); TEV cleavage site (N); made in house; host or cells: baculovirus expression system (printed 'Baculokinase system')
T1 sequence (Q59H18 1-835): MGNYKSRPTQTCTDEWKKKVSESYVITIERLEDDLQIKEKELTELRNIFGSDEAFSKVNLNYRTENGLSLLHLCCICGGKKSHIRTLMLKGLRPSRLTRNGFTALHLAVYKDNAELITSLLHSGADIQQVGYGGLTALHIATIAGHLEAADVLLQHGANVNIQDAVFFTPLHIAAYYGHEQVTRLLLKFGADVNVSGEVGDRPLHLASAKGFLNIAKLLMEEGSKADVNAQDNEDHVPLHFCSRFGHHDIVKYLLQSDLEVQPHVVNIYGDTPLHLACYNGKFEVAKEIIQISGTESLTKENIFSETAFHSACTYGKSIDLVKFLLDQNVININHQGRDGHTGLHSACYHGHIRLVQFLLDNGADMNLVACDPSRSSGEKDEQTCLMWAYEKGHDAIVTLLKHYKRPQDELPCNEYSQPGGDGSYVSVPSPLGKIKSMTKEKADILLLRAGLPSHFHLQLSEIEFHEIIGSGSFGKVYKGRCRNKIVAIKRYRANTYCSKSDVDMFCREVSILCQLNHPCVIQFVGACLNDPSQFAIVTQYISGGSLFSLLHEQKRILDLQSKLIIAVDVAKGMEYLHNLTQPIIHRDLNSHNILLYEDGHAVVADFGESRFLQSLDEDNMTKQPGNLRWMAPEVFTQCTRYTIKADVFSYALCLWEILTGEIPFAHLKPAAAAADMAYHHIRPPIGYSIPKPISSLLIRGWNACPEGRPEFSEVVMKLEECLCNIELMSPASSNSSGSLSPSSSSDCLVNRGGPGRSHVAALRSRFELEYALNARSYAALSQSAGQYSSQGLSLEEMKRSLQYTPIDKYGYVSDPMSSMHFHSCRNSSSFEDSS
Text: Materials: His-MBP-TEV-Full length human TNNI3K (hTNNI3K) was expressed in Baculokinase system and purified from amylase affinity column followed by Superdex200. […] The preparation of this fluorescent ligand is disclosed in U.S. Provisional Patent Application No. 61/237,815 filed Aug. 28, 2009, the disclosure of which is incorporated by reference herein. The other buffer components, including MgCl2 (Catalog Number M1028), Bis-Tris (Catalog Number B7535), DTT (Catalog Number D9779) and Chaps (Catalog Number C3023) were purchased from Sigma-Aldrich.
A fluorescent polarization assay was used to determine does response of compound inhibition on hTNNI3K ATP binding.
Solution 2 was formed by mixing 53.8 μL of 2.6 μM hTNNI3K with a 6946.2 μL aliquot of Solution 1 (the above 5-({[2-({[3-({4-[(5-hydroxy-2-methylphenyl)amino]-2-pyrimidinyl}amino)phenyl]carbonyl}amino)ethyl]amino}carbonyl)-2-(6-hydroxy-3-oxo-3H-xanthen-9-yl)benzoic acid solution) to make up a 7 mL of mixture of hTNNI3K and 5-({[2-({[3-({4-[(5-hydroxy-2-methylphenyl)amino]-2-pyrimidinyl}amino)phenyl]carbonyl}amino)ethyl]amino}carbonyl)-2-(6-hydroxy-3-oxo-3H-xanthen-9-yl)benzoic acid (Solution 2).
Fifty (50) nL of inhibitors in DMSO (or DMSO controls) were stamped into a 384-well low volume Greiner black plate, followed by addition of 5 μL of Solution 1 to column 18 and 5 μL Solution 2 to columns 1-17 and 19-24 of the plate. […] After that, the fluorescent polarization was measured on Analyst (ex/em: 485/530 nm, Dichroic: 505). For dose response experiments, normalized data were fit by ABASE/XC50 and pXC50=(log((b−y)/(y−a)))/d−log(x), where x is the compound concentration and y is the % activity at specified compound concentration, a is the minimum % activity, b is the maximum % activity, and d is the Hill slope.
The pXC50s are averaged to determine a mean value, for a minimum of 2 experiments.

pXC50, ≥ 6.0:
CNS(=O)(=O)c1cccc(Nc2cc(Nc3cccc(-c4ccc(N(C)C)nc4)c3)ncn2)c1 [Example 329, 3-{[6-({3-[6-(dimethylamino)-3-pyridinyl]phenyl}amino)-4-pyrimidinyl]amino}-N-methylbenzenesulfonamide]
CCNS(=O)(=O)c1cccc(Nc2cc(Nc3cccc(S(=O)(=O)NC)c3)ncn2)c1 [Example 62, 3-{[6-({3-[(ethylamino)sulfonyl]phenyl}amino)-4-pyrimidinyl]amino}-N-methylbenzenesulfonamide trifluoroacetate]
CNS(=O)(=O)c1cc(Nc2cc(Nc3ccc(Cl)cc3)ncn2)c(OC)cc1F [Example 18, 5-(6-(4-chlorophenylamino)pyrimidin-4-ylamino)-2-fluoro-4-methoxy-N-methylbenzenesulfonamide trifluoroacetate]
CNS(=O)(=O)c1ccc(Cl)c(Nc2cc(Nc3ccc(C(F)(F)F)cc3)ncn2)c1.O=C(O)C(F)(F)F [Example 130, 4-chloro-N-methyl-3-[(6-{[4-(trifluoromethyl)phenyl]amino}-4-pyrimidinyl)amino]benzenesulfonamide trifluoroacetate]
CCN(CC)C(=O)c1ccc(Nc2cc(Nc3cccc(S(=O)(=O)NC)c3)ncn2)cc1 [Example 361, N,N-diethyl-4-{[6-({3-[(methylamino)sulfonyl]phenyl}amino)-4-pyrimidinyl]amino}benzamide]
CNS(=O)(=O)c1cccc(Nc2cc(Nc3ccc(OCCN4CCOCC4)cc3)ncn2)c1 [Example 224, N-methyl-3-({6-[(4-{[2-(4-morpholinyl)ethyl]oxy}phenyl)amino]-4-pyrimidinyl}amino)benzenesulfonamide trifluoroacetate]
CNS(=O)(=O)c1cc(Nc2cc(Nc3ccc(Cl)cc3)ncn2)cc(N(C)C)c1.O=C(O)C(F)(F)F [Example 6, 3-({6-[(4-chlorophenyl)amino]-4-pyrimidinyl}amino)-5-(dimethylamino)-N-methylbenzenesulfonamide trifluoroacetate]
CNS(=O)(=O)c1ccc(OCC(F)(F)F)c(Nc2cc(Nc3ccc(-n4cccn4)cc3)ncn2)c1 [Example 41, N-methyl-3-[(6-{[4-(1H-pyrazol-1-yl)phenyl]amino}-4-pyrimidinyl)amino]-4-[(2,2,2-trifluoroethyl)oxy]benzenesulfonamide trifluoroacetate]
CNS(=O)(=O)c1cccc(Nc2cc(Nc3ccc(OC)cc3)ncn2)c1.Cl [Example 81, N-methyl-3-[(6-{[4-(methyloxy)phenyl]amino}-4-pyrimidinyl)amino]benzenesulfonamide hydrochloride]
CNS(=O)(=O)c1ccc(OC)c(Nc2cc(Nc3ccc(CC(F)(F)F)cc3)ncn2)c1 [Example 36, N-methyl-4-(methyloxy)-3-[(6-{[4-(2,2,2-trifluoroethyl)phenyl]amino}-4-pyrimidinyl)amino]benzenesulfonamide trifluoroacetate]
CNS(=O)(=O)c1ccc(SC)c(Nc2cc(Nc3ccc4c(c3)CCCC4=O)ncn2)c1 [Example 166, N-methyl-4-methylsulfanyl-3-[6-(5-oxo-5,6,7,8-tetrahydro-naphthalen-2-ylamino)-pyrimidin-4-ylamino]-benzenesulfonamide trifluoroacetate]
CNS(=O)(=O)c1ccc(Nc2cc(Nc3cccc(S(=O)(=O)NC)c3)ncn2)cc1 [Example 222, N-methyl-3-{[6-({4-[(methylamino)sulfonyl]phenyl}amino)-4-pyrimidinyl]amino}benzenesulfonamide trifluoroacetate]
CNS(=O)(=O)c1ccc(SC)c(Nc2cc(Nc3ccc4cn[nH]c4c3)ncn2)c1 [Example 170, 3-[6-(1H-indazol-6-ylamino)-pyrimidin-4-ylamino]-N-methyl-4-methylsulfanyl-benzenesulfonamide trifluoroacetate]
CNS(=O)(=O)c1ccc(N(C)CC(F)(F)F)c(Nc2cc(Nc3ccc(Cl)cc3)ncn2)c1 [Example 19, 3-({6-[(4-chlorophenyl)amino]-4-pyrimidinyl}amino)-N-methyl-4-[methyl(2,2,2-trifluoroethyl)amino]benzenesulfonamide trifluoroacetate]
CNS(=O)(=O)c1cccc(Nc2cc(Nc3cccc(-c4ccc(=O)[nH]c4)c3)ncn2)c1 [Example 371, N-methyl-3-[(6-{[3-(6-oxo-1,6-dihydro-3-pyridinyl)phenyl]amino}-4-pyrimidinyl)amino]benzenesulfonamide]
CNS(=O)(=O)c1ccc(N(C)C)c(Nc2cc(Nc3cccc(C)c3)ncn2)c1 [Example 246, 4-(dimethylamino)-N-methyl-3-({6-[(3-methylphenyl)amino]-4-pyrimidinyl}amino)benzenesulfonamide trifluoroacetate]
CNS(=O)(=O)c1cccc(Nc2cc(Nc3ccc4c(c3)OCCO4)ncn2)c1 [Example 80, 3-{[6-(2,3-dihydro-1,4-benzodioxin-6-ylamino)-4-pyrimidinyl]amino}-N-methylbenzenesulfonamide trifluoroacetate]
CNS(=O)(=O)c1ccc(F)c(Nc2cc(Nc3ccc(Cl)cn3)ncn2)c1 [Example 302, 3-({6-[(5-chloro-2-pyridinyl)amino]-4-pyrimidinyl}amino)-4-fluoro-N-methylbenzenesulfonamide trifluoroacetate]
CNS(=O)(=O)c1ccc(S(C)(=O)=O)c(Nc2cc(Nc3ccc(F)c(F)c3)ncn2)c1 [Example 132, 3-({6-[(3,4-difluorophenyl)amino]-4-pyrimidinyl}amino)-N-methyl-4-(methylsulfonyl)benzenesulfonamide trifluoroacetate]
CNS(=O)(=O)c1ccc(OCC(F)(F)F)c(Nc2cc(Nc3ccc(C(F)(F)F)cn3)ncn2)c1 [Example 291, N-methyl-4-[(2,2,2-trifluoroethyl)oxy]-3-[(6-{[5-(trifluoromethyl)-2-pyridinyl]amino}-4-pyrimidinyl)amino]benzenesulfonamide trifluoroacetate]
CNS(=O)(=O)c1cccc(Nc2cc(Nc3ccccn3)ncn2)c1 [Example 271, N-methyl-3-{[6-(2-pyridinylamino)-4-pyrimidinyl]amino}benzenesulfonamide]
CNS(=O)(=O)c1ccc(SC)c(Nc2cc(Nc3cc(OC)cc(C(F)(F)F)c3)ncn2)c1 [Example 154, 3-(6-(3-methoxy-5-(trifluoromethyl)phenylamino)pyrimidin-4-ylamino)-N-methyl-4-(methylthio)benzenesulfonamide trifluoroacetate]
CNS(=O)(=O)c1cccc(Nc2cc(Nc3ccc(OC(F)(F)F)cc3)ncn2)c1 [Example 244, N-methyl-3-{[6-({4-[(trifluoromethyl)oxy]phenyl}amino)-4-pyrimidinyl]amino}benzenesulfonamide trifluoroacetate]
CNS(=O)(=O)c1cccc(Nc2cc(Nc3cc(C)cc(C)c3)ncn2)c1 [Example 221, 3-({6-[(3,5-dimethylphenyl)amino]-4-pyrimidinyl}amino)-N-methylbenzenesulfonamide trifluoroacetate]
